# This is a selection; strong and weak results do not stand in their true shares. Where no call is shown, the source filed none. Results filed as inconclusive are left out. Activity calls are given as the source filed them. Calls come from the whole dose curve; as a rule, active = well fitted curve in the direction sought with a large enough effect; inconclusive = small, poorly fitted or top-dose-only effect, or another doubt; inactive = no such curve, though single readings can be large or run the other way.
# Assay: qHTS Assay Multiplex Screening to Identify Dual Action Probes in a Cell Model of Huntington: Cytoprotection in HTT Q25 expressing cells (ATP)
# Conditions: PC12 HTT-Q25 inducible, ATP luminescence, 40 h; activity change, positive = cytoprotection: at 46.1 µM (top of the series)
# Source text: NIH Chemical Genomics Center [NCGC] NIH Molecular Libraries Probe Production centers Network [MLPCN] MLPCN Grant: MH084839-01A1 Assay Submitter (PI): Wei Zheng NCGC Assay Overview: Huntington's disease is a neurodegenerative disorder caused by a trinucleotide repeat expansion in Exon 1 of the Huntingtin gene. The CAG trinucleotide encodes glutamine and polyglutamine expansions cause cell death in selective areas of the brain. Huntington polyglutamine repeats have the tendency to form aggregates which are observable in later stages of the disease. The exact nature of the aggregates, whether toxic, protective, or insignificant, is unclear. A stable PC12 cell line containing a gene fusion of Exon 1 of the Huntingtin gene linked to GFP under the control of the inducible ecdysone promoter were used as the cell-based model of Huntington Disease for high throughput screening. Exon 1 of the Huntingtin gene contained an expansion of 103 polyglutamines (Q103) which, when expressed, caused cell death and distinct, bright GFP aggregates. The amount of cell death and the size and intensity of GFP aggregates increased over time and induction level. The cell death were quantified with a measurement of ATP content in the cells. A maximal 40-50% of cell death was observed when the Huntington gene was induced in this cell line. We optimized this assay in a homogeneous 1536 well format. A quantitative high throughput screen (qHTS) was conducted on the PC12 cells which were induced to express the toxic fusion construct. Small molecules which prevented cell death were identified by using a luminescent ATP quantification method (Perkin Elmer's ATPlite). To characterize compound effects on a different form of the HTT protein, PC12 cells stably containing a construct with an ecdysone inducible promoter expressing GFP fused to the exon 1 of HTTQ25 (Huntington protein which containing a 25 ployglutamine expansion) were used. Less cytoxicity occurs upon induction of HTTQ25.
# PC12 cells stably containing a construct with an ecdysone inducible promoter expressing GFP fused to the exon 1 of HTTQ25 (Huntington protein which containing a 25 ployglutamine expansion) were used. NCGC Assay Protocol Summary: Sequence, Parameter, Description 1, Reagent, 5 uL 1500 cells/well 1536 TC treated White clear bottom plate 2, Compound, 23 nL Tebufenozide inducer (100 nM final) to all columns 3, Compound, 23 nL 40 uM to 0.5 nM Libraries 4, Time, 40 hours at 37C 5, Reagent, 5 ul ATPLite cell death assay reagent 6, Detector, 4 sec integration with a Viewlux Luminescent Media consisted of phenol red free DMEM + 5% equine serum (Hyclone # SH30072.03 ), 5% supplemented Bovine Calf Serum (Hyclone # SH30074.03 ), 1x pen/strep, no G418
Compound,"activity change, positive = cytoprotection",Potency
Cn1nnnc1Sc1ncnc2scc(-c3ccccc3F)c12,139%,
Cn1nnnc1Sc1ncnc2scc(-c3ccc(C#N)cc3)c12,-143%,
Cn1nnnc1Sc1ncnc2scc(-c3cccc(Br)c3)c12,inactive: -154%,
Cn1nnnc1Sc1ncnc2scc(-c3ccsc3)c12,,active: 10 µM
Cn1nnnc1Sc1ncnc2scc(-c3cccc([N+](=O)[O-])c3)c12,40.6%,
Cn1nnnc1Sc1ncnc2scc(Br)c12,-163%,
Cn1nnnc1Sc1ncnc2scc(-c3ccc4ccccc4c3)c12,-144%,
Cn1nnnc1Sc1ncnc2scc(-c3ccc4c(c3)OCO4)c12,210%,
Cn1nnnc1Sc1ncnc2scc(I)c12,37.7%,
Cn1nnnc1Sc1ncnc2scc(-c3ccc(C(F)(F)F)cc3)c12,inactive: -214%,
